Experimental data published in publication PMC9584350.
These are yes or no findings as the source states them, for the method shown. For some of these results: In cells and extracts the contact can be indirect. Some results given as binding are weak or reduced against the parent protein; the word gives no strength.

Sequences of proteins named here, by UniProt entry; tags and fusion partners are left off. A change or cut given only in a name is not applied to a line headed by its entry. Residues count along the entry.
UniProt P54646: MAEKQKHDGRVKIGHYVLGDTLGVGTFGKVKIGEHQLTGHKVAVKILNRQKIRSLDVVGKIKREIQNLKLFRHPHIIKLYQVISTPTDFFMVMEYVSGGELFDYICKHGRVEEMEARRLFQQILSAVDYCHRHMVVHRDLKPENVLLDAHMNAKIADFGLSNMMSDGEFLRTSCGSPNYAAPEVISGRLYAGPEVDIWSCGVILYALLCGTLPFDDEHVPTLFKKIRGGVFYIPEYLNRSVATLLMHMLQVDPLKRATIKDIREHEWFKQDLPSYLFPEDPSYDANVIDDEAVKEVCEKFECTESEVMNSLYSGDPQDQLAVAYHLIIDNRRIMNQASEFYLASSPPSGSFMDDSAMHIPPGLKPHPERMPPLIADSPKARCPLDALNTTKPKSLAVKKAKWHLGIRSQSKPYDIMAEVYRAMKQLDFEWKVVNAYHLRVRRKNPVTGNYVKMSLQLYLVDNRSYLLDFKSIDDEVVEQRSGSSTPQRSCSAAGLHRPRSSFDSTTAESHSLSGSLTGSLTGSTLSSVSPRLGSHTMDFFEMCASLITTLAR
GST–AMPK-C (amino acids 291–552 of AMPKα2): residues 291-552 of P54646
UniProt P62330: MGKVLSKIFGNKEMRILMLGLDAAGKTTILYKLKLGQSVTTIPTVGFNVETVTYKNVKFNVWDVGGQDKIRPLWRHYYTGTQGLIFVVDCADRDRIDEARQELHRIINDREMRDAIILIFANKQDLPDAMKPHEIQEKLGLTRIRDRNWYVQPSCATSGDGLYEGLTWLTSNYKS

Legend:
[1] = molecular target: FLAG–AMPKα2-WT (UniProt P54646); test: co-IP; HEK 293T cells transfected, lysed in 50 mM Tris-HCl pH 7.4, 150 mM NaCl, 1% NP-40; IP with anti-FLAG antibody and Protein A Sepharose, immunoblot
[2] = molecular target: GST–AMPK-C (amino acids 291–552 of AMPKα2) (UniProt P54646); test: pull-down; GST–AMPK-C immobilised on glutathione beads, incubated with His–Arf6 WT preloaded with 1 mM GDP (30°C, 15 min); binding buffer as above, 1 h at 4°C; both purified
[3] = molecular target: GST–AMPK-C (amino acids 291–552 of AMPKα2) (UniProt P54646); test: pull-down; GST–AMPK-C immobilised on glutathione beads, incubated with His–Arf6 WT preloaded with 1 mM nonhydrolyzable GTPγS (30°C, 15 min); binding buffer as above, 1 h at 4°C; both purified

In the case of “Arf6-T27N (myc-tagged, in cells) (from UniProt P62330 1-175)”, the binding [1] is reported as “binds”.
In the case of “Arf6-Q67L (myc-tagged, in cells) (from UniProt P62330 1-175)”, the binding [1] is reported as “no binding”.
“His–Arf6 (WT) (from UniProt P62330 1-175)” was tested, and the binding [2] was “binds” and the binding [3] was “no binding (condition: Arf6 preloaded with 1 mM GTPγS)”.
